This is an account of results in PMC10632515.

The chains behind the UniProt entries cited, without tags or fusion partners.
UniProt Q9C0J9: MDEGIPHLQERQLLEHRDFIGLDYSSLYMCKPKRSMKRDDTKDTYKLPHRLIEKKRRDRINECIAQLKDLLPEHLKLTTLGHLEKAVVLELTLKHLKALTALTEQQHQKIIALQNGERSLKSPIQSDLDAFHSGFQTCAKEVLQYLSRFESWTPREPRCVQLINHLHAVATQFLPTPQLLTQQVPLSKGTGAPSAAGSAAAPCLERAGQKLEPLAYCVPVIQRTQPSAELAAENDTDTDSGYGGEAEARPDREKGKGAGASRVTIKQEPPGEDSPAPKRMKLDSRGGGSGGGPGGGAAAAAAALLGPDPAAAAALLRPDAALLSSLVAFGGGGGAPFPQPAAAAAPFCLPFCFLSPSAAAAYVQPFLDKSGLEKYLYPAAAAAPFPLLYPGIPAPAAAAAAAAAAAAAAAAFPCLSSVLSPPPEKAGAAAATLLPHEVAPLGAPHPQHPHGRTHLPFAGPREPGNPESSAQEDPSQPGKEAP
UniProt P63208: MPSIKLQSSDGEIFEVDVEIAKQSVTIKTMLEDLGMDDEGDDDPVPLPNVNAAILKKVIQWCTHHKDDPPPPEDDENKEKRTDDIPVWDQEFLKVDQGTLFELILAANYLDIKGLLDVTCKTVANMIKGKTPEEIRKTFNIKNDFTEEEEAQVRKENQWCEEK
UniProt Q9Y297: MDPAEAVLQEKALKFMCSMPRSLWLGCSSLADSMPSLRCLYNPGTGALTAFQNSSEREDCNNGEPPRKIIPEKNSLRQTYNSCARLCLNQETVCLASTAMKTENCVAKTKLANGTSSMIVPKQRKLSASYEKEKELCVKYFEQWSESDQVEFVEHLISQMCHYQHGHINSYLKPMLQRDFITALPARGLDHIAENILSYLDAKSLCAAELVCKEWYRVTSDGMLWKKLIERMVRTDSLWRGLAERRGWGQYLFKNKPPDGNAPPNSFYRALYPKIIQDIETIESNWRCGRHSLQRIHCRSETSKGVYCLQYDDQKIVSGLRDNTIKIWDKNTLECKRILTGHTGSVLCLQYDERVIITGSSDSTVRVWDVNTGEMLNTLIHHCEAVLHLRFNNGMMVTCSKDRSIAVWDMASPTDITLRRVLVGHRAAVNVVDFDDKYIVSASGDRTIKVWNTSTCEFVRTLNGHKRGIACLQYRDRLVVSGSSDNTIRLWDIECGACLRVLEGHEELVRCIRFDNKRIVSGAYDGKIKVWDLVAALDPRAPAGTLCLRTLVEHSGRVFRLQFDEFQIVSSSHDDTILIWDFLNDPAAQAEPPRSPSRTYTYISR
UniProt Q9UKB1: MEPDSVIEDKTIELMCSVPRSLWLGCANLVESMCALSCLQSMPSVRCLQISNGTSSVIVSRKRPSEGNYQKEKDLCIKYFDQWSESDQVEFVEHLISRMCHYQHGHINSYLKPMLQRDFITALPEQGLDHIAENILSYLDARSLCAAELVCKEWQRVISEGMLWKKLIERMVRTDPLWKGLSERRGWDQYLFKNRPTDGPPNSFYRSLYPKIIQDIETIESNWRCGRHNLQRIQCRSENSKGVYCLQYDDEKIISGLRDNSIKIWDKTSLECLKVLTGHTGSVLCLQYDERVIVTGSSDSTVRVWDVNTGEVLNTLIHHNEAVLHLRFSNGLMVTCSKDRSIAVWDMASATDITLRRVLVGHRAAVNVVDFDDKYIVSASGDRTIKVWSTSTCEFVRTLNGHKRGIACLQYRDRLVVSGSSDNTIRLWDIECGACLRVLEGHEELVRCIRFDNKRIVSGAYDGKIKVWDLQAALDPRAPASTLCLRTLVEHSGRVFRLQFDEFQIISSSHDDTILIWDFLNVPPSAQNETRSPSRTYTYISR

This assay addresses FLAG-HA-epitope tagged SHARP1 (Split and Hairy-related Protein 1) (UniProt Q9C0J9). The assay can be described thus: affinity purification with mass spectrometry; FLAG-HA-SHARP1 expressed in HEK293T, cells treated with 10 μM MG132 for 5 hours; lysis in 50 mM Tris-HCl pH 7.5, 150 mM NaCl, 1 mM EDTA, 0.5% NP-40; anti-FLAG resin, FLAG peptide elution, then anti-HA resin; LC-MS/MS; empty vector as control.

No constants are given. Whether binding was seen depends on the method and setting. Binding seen in cells or lysates may run through a third protein. Here binding means that the protein was enriched with, or labelled near, the bait; the list need not be complete.

Turning to “SKP1 (endogenous, HEK293T cells) (from UniProt P63208 1-163)”, the binding entry is reported as “binds”.

Turning to “βTrCP1 (endogenous, HEK293T cells) (from UniProt Q9Y297 1-605)”, the binding entry was “binds”.

“βTrCP2 (endogenous, HEK293T cells) (from UniProt Q9UKB1 1-542)”: the binding entry was “binds”.
